Assay results taken from PubChem BioAssay AID504467 (National Center for Advancing Translational Sciences (NCATS), 2011).
About 7,700 (2.3%) of roughly 330,000 compounds were called active. This list was built around the results that the source calls inconclusive (neither active nor inactive); the mix of calls is not that of the screen. Calls come from the whole dose curve; as a rule, active = well fitted inhibition curve with a large enough effect; inconclusive = small, poorly fitted or top-dose-only effect, or effect the other way; inactive = flat fitted curve, though single readings scatter. A potency beside an inconclusive call is a rough fit, not a confirmed value.

Assay: qHTS screen for small molecules that inhibit ELG1-dependent DNA repair in human embryonic kidney (HEK293T) cells expressing luciferase-tagged ELG1; note: nearly all actives have a fitted effect of over 55% in size
Conditions: HEK293T ELG1-luciferase reporter, luminescence, 16 h, DNA damage induced by 5-fluorouridine; activity change, negative = inhibition: at 46.1 µM (top of the series)
In short: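 Step one: seed 2,000 cells per well. Step two: pin-transfer compound or DMSO alongside 5-fluorouridine. Step three: incubate 16 hr, 37 °C, 5% CO2. Step four: add ONE-Glo, wait 30 min, read luminescence.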
% is set by controls: 0 for no effect and ±100 for the full control effect; potency is the fitted concentration of half-maximal effect.

SMILES	Potency	activity change, negative = inhibition
CS(=O)(=O)c1nc(-c2ccc(Br)cc2)cc(-c2ccccc2)c1C#N	active: 16.4 µM	
Cc1ccc(CCNC(=O)c2ccc3nc4ccccc4c(=O)n3c2)cc1	inconclusive: 10.3 µM [activator, partial curve, poor fit]	
Cc1ccsc1CN1CC(=O)N(c2c(C)cccc2C)C1=S	inconclusive: 23.1 µM [inhibitor, single point]	
CC[C@]12CCCN3CCc4c(n(c5ccccc45)[C@@](O)(C(=O)OC)C1)[C@@H]32	inconclusive: 14.6 µM [activator, partial curve]	
COc1ccc(C(=O)/C=C2\NCC3c4ccccc4CCN3C2=O)cc1 (stereo unspecified)		inconclusive: 14.5% [activator]
Cc1ccc(S(=O)(=O)/N=C(/c2ccc(F)cc2)N(C)C)cc1	inconclusive: 29.1 µM [activator, partial curve, poor fit]	
CCOc1ccc(CCNC(=O)c2cc3sccc3n2C)cc1OCC	inconclusive: 29.1 µM [inhibitor, single point]	
CCC(CC)COC(=O)C1=C(C)NC(=O)NC1c1ccc(OC)cc1 (stereo unspecified)	inconclusive: 35.5 µM [inhibitor, single point]	
COc1ccc(N2CCC(CNC(=O)Nc3cccc(OC)c3)C2)cc1 (stereo unspecified)	inactive	
COC(=O)Nc1nnc(-c2ccccc2Cl)s1	inconclusive: 14.6 µM [activator, partial curve]	
CCC(=O)N(C)CCc1cc2c(c(OC)c1/C=N/NC(=O)c1ccncc1)OCO2	inconclusive: 20.6 µM [activator, partial curve, poor fit]	
COC(=O)c1cc(-c2ccc(OC)c(OC)c2)c2c(=O)[nH]c(=O)n(C)c2n1	inactive	
Cc1noc(NS(=O)(=O)c2ccc(N/C=C/C(=O)c3ccc(F)cc3)cc2)c1C	inconclusive: 29.1 µM [inhibitor, single point]	
Cc1ccc(C(=O)O/N=C(\N)c2ccccn2)cc1Cl	inconclusive: 1.3 µM [activator, partial curve]	
O=C(NCCc1ccccc1)c1ccc2c(c1)OCO2	inconclusive: 0.291 µM [activator, full curve, poor fit]	
CC1CCCCN1c1ccc(N)cc1C(N)=O (stereo unspecified)	inactive	
Cc1cc(C(=O)OCC(=O)NCc2ccc(Cl)cc2)c(C)o1	inconclusive: 29.1 µM [inhibitor, single point]	
CCC(C)c1ccc(NC(=S)NN2CCOCC2)cc1 (stereo unspecified)	inconclusive: 11.6 µM [activator, partial curve]	
CN1CCN(c2ccc(NC(=S)NC(=O)c3cccc4c(Cl)cccc34)cc2)CC1	inactive	
Cc1oc(-c2cccc(Cl)c2)nc1CN1CCC(C(=O)NC2CC2)CC1	inactive	
Cc1ccc(-n2nnnc2CNC(=O)c2ccc3c(c2)OCO3)cc1C	inactive	
COC(=O)c1cc(-c2cccc(OC)c2)n[nH]1	inconclusive: 16.4 µM [activator, single point]	
O=C(C1CC1)N1CCc2cc(Br)cc(S(=O)(=O)N3CCOCC3)c21	inconclusive: 8.2 µM [inhibitor, partial curve, poor fit]	
CC(C)C(OC(=O)c1ccccc1)c1nccc2ccccc12 (stereo unspecified)	inconclusive: 23.1 µM [activator, partial curve]	

SMILES	Potency	activity change, negative = inhibition
Cc1cc(C)nc(N2CCN(C(=O)c3ccc(S(=O)(=O)N4CCCCCC4)cc3)CC2)n1	inconclusive: 3.26 µM [inhibitor, full curve]	
O=C(CN1CCCCC1)Nc1ccccc1Oc1ccccc1	inactive	
O=C(c1cc(-c2ccc(Cl)c(Cl)c2)on1)N1CCCCC1	inconclusive: 8.2 µM [activator, partial curve, poor fit]	
CCOc1ccc2nc(NC(=O)C3CCN(C(=O)c4ccco4)CC3)sc2c1	inconclusive: 18.3 µM [activator, partial curve]	
O=C1CCC(c2ccccc2)=NN1	inconclusive: 32.6 µM [activator, single point]	
O=C(c1ccccc1)c1ccc2nc(-c3ccc(NC(=O)c4ccccc4Br)cc3)[nH]c2c1	inconclusive: 8.91 µM [activator, single point]	
O=c1c2ccccc2nc(-c2ccc(F)cc2)n1NCc1ccccc1O	inactive	
O=Cc1c(-c2ccccc2)cc2oc3ccccc3cc1-2	inconclusive: 3.66 µM [activator, full curve]	
CCOC(=O)c1ccccc1-c1cn2cc(Cl)ccc2n1	inconclusive: 23.1 µM [activator, partial curve, poor fit]	
O=C(CNc1cccc(S(=O)(=O)N2CCCCCC2)c1)Nc1cccc([N+](=O)[O-])c1	inconclusive: 29.1 µM [inhibitor, single point]	
COc1ccccc1-c1cc(C(F)(F)F)nc(S(C)(=O)=O)n1	inconclusive: 29.1 µM [inhibitor, single point]	
CCOC(=O)C1=C(COC(=O)CC(C)c2ccccc2)NC(=O)NC1C (stereo unspecified)	inactive	
Cc1ccccc1S(=O)(=O)Nc1ncc(C(F)(F)F)cc1Cl	inconclusive: 29.1 µM [inhibitor, single point]	
Cc1cccc(-c2nc3c(c(=O)c4ccccc4n3C)c(=O)n2-c2ccccc2)c1	inactive	
O=C(Nc1ccc(Cl)cc1)Nc1ccc(N2CCOCC2)cc1	inconclusive: 7.31 µM [activator, single point]	
CCN1CCN(CC(=O)n2c3c(c4ccccc42)CC(C)CC3)CC1 (stereo unspecified)	inactive	
COc1ccc(NC(=S)N(CCc2ccc(OC)c(OC)c2)Cc2ccccn2)cc1	inconclusive: 16.4 µM [inhibitor, single point]	
O=C(O)c1ccc(NC(=S)NC(=O)c2ccc(-c3ccccc3)cc2)cc1	inconclusive: 5.17 µM [activator, full curve, poor fit]	
Cc1ccc(C(O)(C(=O)NNc2ccc3ccccc3n2)c2ccc(C)cc2)cc1	inconclusive: 13 µM [inhibitor, partial curve]	
CCOc1ccc(S(=O)(=O)N2CCCC(C(=O)N3CCN(CC)CC3)C2)cc1Cl (stereo unspecified)	inconclusive: 25.9 µM [inhibitor, single point]	
CCCC1=NN(c2ccc([N+](=O)[O-])cc2)C(=O)/C1=C\N(C)C	inconclusive: 23.1 µM [activator, single point]	
Cc1cccc(OCc2nnc(SCC(=O)N3CCCC3)o2)c1	inactive	
N#Cc1ccc(Nc2nc(-c3ccc(O)cc3O)cs2)cc1C(F)(F)F	inconclusive: 18.3 µM [inhibitor, single point]	
CN(C[C@@H](Cc1cccc2ccccc12)N(C[C@H](Cc1ccccc1)N(CCc1ccccc1)N=O)N=O)N=O	inactive	

SMILES	Potency	activity change, negative = inhibition
Cc1cc(NC(=O)c2ccc(Cl)cc2)c(C)cc1O	inconclusive: 29.1 µM [activator, single point]	
O=C(N/N=C/c1ccc([N+](=O)[O-])cc1)c1cc(C2CC2)nc2ccccc12	inconclusive: 14.6 µM [inhibitor, partial curve]	
O=C(Nc1nnc(-c2ccco2)o1)c1ccc(N2C(=O)CCC2=O)cc1	inactive	
CCCCNC(=O)COc1ccccc1[N+](=O)[O-]	inconclusive: 13 µM [activator, partial curve]	
Cc1cc(C(=O)COC(=O)c2nccnc2N)c(C)n1C	inconclusive: 5.8 µM [activator, partial curve]	
O=c1[nH]nc(SCc2cc(Cl)ccc2Cl)c(=O)[nH]1	inconclusive: 20.6 µM [activator, single point]	
CC(=O)/C(N=Nc1ccc2c(c1)OCO2)=C(\C)O	inconclusive: 16.4 µM [activator, partial curve]	
CCN(CC)CCOC(=O)c1ccc(NC(=O)CCCN2C(=O)S/C(=C/c3ccc(OC)cc3)C2=S)cc1	inactive	
CC(=O)c1c(C)nc2ccc([N+](=O)[O-])cc2c1-c1ccccc1	inactive	
Cc1ccc(NC(=O)c2cc(S(=O)(=O)N3CCCCC3)c[nH]2)cc1C	inactive	
O=C(Nc1ccc2ccccc2n1)c1ccccc1	inconclusive: 2.31 µM [activator, full curve]	
COc1ccc(C2CC(=O)Nc3ccccc3S2(=O)=O)cc1OC (stereo unspecified)	inactive	
CCOC(=O)c1ccc(NC(=O)CN2C(=O)CN(C(C)=O)C2=S)cc1	inactive	
CC(=O)c1cccc(NC(=O)c2ccc(Br)o2)c1	inconclusive: 13 µM [activator, partial curve]	
Cc1ccc(Cc2cnc(NC(=O)/C(C#N)=C/c3ccc(-c4ccccc4[N+](=O)[O-])o3)s2)cc1	inactive	
CC(C)c1ccc(NCCC(=O)c2cccs2)cc1	inconclusive: 14.6 µM [activator, partial curve]	
Cc1nn(Cc2ccccc2Cl)c2sc(C(=O)Nc3ccccc3N3CCOCC3)cc12	active: 23.1 µM	
CN(C)CCCn1c(SCc2ccc(Cl)cc2)nnc1-c1ccncc1	inconclusive: 0.891 µM [inhibitor, full curve, poor fit]	
O=C(c1cccc(Cl)c1)N1CCC(N2CCC(C(=O)N3CCOCC3)CC2)CC1	inactive	
CCOC(=O)c1nn(-c2sc(C(=O)OC)c(C)c2C(=O)OC)cc1O	inconclusive: 29.1 µM [inhibitor, single point]	
O=C1CSC(=S)N1N=C1CCCCCC1	inconclusive: 23.1 µM [activator, partial curve, poor fit]	
CCS(=O)(=O)c1nc(S(=O)(=O)c2ccc(Cl)cc2)c(NCCN2CCOCC2)s1	inactive	
O=C(NCCCO)c1ccc2[nH]c3ccccc3c2c1	inconclusive: 15.8 µM [activator, single point]	

Part of the list above, bar-delimited:
SMILES | Potency | activity change, negative = inhibition
Cc1ccc(NC(=O)c2cc(S(=O)(=O)N3CCCCC3)c[nH]2)cc1C | inactive | 
O=C(Nc1ccc2ccccc2n1)c1ccccc1 | inconclusive: 2.31 µM [activator, full curve] | 
COc1ccc(C2CC(=O)Nc3ccccc3S2(=O)=O)cc1OC (stereo unspecified) | inactive | 
CCOC(=O)c1ccc(NC(=O)CN2C(=O)CN(C(C)=O)C2=S)cc1 | inactive | 
CC(=O)c1cccc(NC(=O)c2ccc(Br)o2)c1 | inconclusive: 13 µM [activator, partial curve] | 
Cc1ccc(Cc2cnc(NC(=O)/C(C#N)=C/c3ccc(-c4ccccc4[N+](=O)[O-])o3)s2)cc1 | inactive | 
CC(C)c1ccc(NCCC(=O)c2cccs2)cc1 | inconclusive: 14.6 µM [activator, partial curve] | 
Cc1nn(Cc2ccccc2Cl)c2sc(C(=O)Nc3ccccc3N3CCOCC3)cc12 | active: 23.1 µM | 
CN(C)CCCn1c(SCc2ccc(Cl)cc2)nnc1-c1ccncc1 | inconclusive: 0.891 µM [inhibitor, full curve, poor fit] | 
O=C(c1cccc(Cl)c1)N1CCC(N2CCC(C(=O)N3CCOCC3)CC2)CC1 | inactive | 
CCOC(=O)c1nn(-c2sc(C(=O)OC)c(C)c2C(=O)OC)cc1O | inconclusive: 29.1 µM [inhibitor, single point] | 
O=C1CSC(=S)N1N=C1CCCCCC1 | inconclusive: 23.1 µM [activator, partial curve, poor fit] | 
CCS(=O)(=O)c1nc(S(=O)(=O)c2ccc(Cl)cc2)c(NCCN2CCOCC2)s1 | inactive | 
O=C(NCCCO)c1ccc2[nH]c3ccccc3c2c1 | inconclusive: 15.8 µM [activator, single point] | 
